Measurements reported in publication PMC7819943, “Rice protein-binding microarrays: a tool to detect cis-acting elements near promoter regions in rice”.
This is one part of the list.

Chains of the proteins cited; added tags and fusions are not shown.
UniProt Q0JBA9, entry or part of it: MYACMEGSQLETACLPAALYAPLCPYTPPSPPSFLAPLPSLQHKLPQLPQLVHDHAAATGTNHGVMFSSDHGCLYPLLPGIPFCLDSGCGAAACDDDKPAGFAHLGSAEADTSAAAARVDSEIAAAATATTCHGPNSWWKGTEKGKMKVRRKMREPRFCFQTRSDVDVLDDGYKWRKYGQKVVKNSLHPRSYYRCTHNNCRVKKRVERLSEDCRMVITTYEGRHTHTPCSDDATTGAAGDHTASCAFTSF

What follows are sequences tested against OsWRKY34 (Oryza sativa, UniProt Q0JBA9 1-250) (assay: protein-binding microarray (RPBM); PBS, 2% BSA, 51.3 ng/ul salmon testes DNA, 50 uM zinc acetate, 200 nM TF, 25 C, 1 h; high values mean tight binding). Details: protein: recombinant; tags: N-terminal polyhistidine and DsRed monomer fusion (pET32a); label: CyDye5-dUTP incorporated in the synthesized complementary strand; 3' TTTTT single-stranded linker to array surface; dsDNA, one strand shown.
Outline: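 Transcription factors were made in E. coli BL21-CodonPlus as N-terminal fusions to a polyhistidine tag and DsRed, then purified on Ni–NTA. After primer extension with Cy5-dUTP and blocking with 2% BSA, a custom Agilent array was exposed for 1 h at 25 °C to 200 nM protein in PBS, 2% BSA, salmon testes DNA and 50 µM zinc acetate. Washed arrays were scanned on an Axon 4000B, and the binding signal is per-feature fluorescence intensity in arbitrary units.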

Sequence | binding signal
ACATGTGGATCCCACGATATTTTTTTGTGTGTGAATGACACGGAGTCACCTAGTGCAG | 8820 fluorescence intensity (a.u.)
GTAACCTCCGACTAGGAATTCCCCGTTGCCATCTCCTCCGCGGAGTCACCTAGTGCAG | 8450 fluorescence intensity (a.u.)
ACAAGTCGGCAAGTGGTTTGTGTGATTATGTTTGTTACTTCGGAGTCACCTAGTGCAG | 10400 fluorescence intensity (a.u.)
GGCGCTTGGGTTTTGTTGGAGTCTTATCAAAGTTTTGAACCGGAGTCACCTAGTGCAG | 9650 fluorescence intensity (a.u.)
TGTTTGGGTTCTGTTGTGCTCCCTTTTCTTCTCCTAACGCCGGAGTCACCTAGTGCAG | 9720 fluorescence intensity (a.u.)
TGGATACTTTTCTTTTGTACCATTACTCTCTGTGTTCTAACGGAGTCACCTAGTGCAG | 8410 fluorescence intensity (a.u.)
TGGATTCTTTGGATTGGGGCTACTTAAATGCGGGGAAGAACGGAGTCACCTAGTGCAG | 9370 fluorescence intensity (a.u.)
CTCCATAGTCTCTGAAGCTCCTCACAGTTCAGTTCTAACCCGGAGTCACCTAGTGCAG | 9020 fluorescence intensity (a.u.)
CGCTGCGCTAATCACGCGCGGTCAGACGTTGACTACCATGCGGAGTCACCTAGTGCAG | 9590 fluorescence intensity (a.u.)
GATGATGGCTATATCTTGCACGTTGCTTTCTTATGACATTCGGAGTCACCTAGTGCAG | 9630 fluorescence intensity (a.u.)
GTTGTTCTTCTTCAGTTCTTTTCTCTCTCTCTGTCTCCTGCGGAGTCACCTAGTGCAG | 8290 fluorescence intensity (a.u.)
TTCGGGAATAGTGGGGAAGGAGGAAGAGTGGGTCATCTAGCGGAGTCACCTAGTGCAG | 8910 fluorescence intensity (a.u.)
TGTTTTTCCTATCCTTTATTTCTTTATTCCTATAATACGTCGGAGTCACCTAGTGCAG | 9150 fluorescence intensity (a.u.)
ATTTAAGTTTTCGAATTATAGTATTCAGCATGTACGTATACGGAGTCACCTAGTGCAG | 8480 fluorescence intensity (a.u.)
ATGACTCACCTTGTTTTGCATATCTTCCAGGTATTCTCTTCGGAGTCACCTAGTGCAG | 11200 fluorescence intensity (a.u.)
CTGAATTGTTTATTTCGCCCGCACTGGACTGCACGCTAACCGGAGTCACCTAGTGCAG | 8260 fluorescence intensity (a.u.)
CAGTTACTTTTAATTTTGTCACTACGTGCACTCGCGACATCGGAGTCACCTAGTGCAG | 8050 fluorescence intensity (a.u.)
CCGCAAAATCCATCCCCGCCTTGCTGCCTTACCATATCCTCGGAGTCACCTAGTGCAG | 12300 fluorescence intensity (a.u.)
TCATTCTTTTTTTTAACAACAAATATTCTCTGGCTTATATCGGAGTCACCTAGTGCAG | 8530 fluorescence intensity (a.u.)
TCCTTGAGTCTGTGAGTGCCACCATTGGGAATTTCCTTGACGGAGTCACCTAGTGCAG | 8470 fluorescence intensity (a.u.)
ACCTGACGATTCCCCTAAGCGCCGCTCTCCCCGCTTCCATCGGAGTCACCTAGTGCAG | 8460 fluorescence intensity (a.u.)
CCCTGTATCCTTCTCTGCTTCGTTGGTCACCATCGGTTACCGGAGTCACCTAGTGCAG | 8520 fluorescence intensity (a.u.)
TTCCAGTTCGTTTCGTTGCCGTTCGCTCAGCGCTCGCTTCCGGAGTCACCTAGTGCAG | 8030 fluorescence intensity (a.u.)
GCATCTCTCTCCTTCCAAACCATCCCGCAGATTAGCAGCACGGAGTCACCTAGTGCAG | 8230 fluorescence intensity (a.u.)
CCCGCCGTCTTCCCCGTCTCCGGCGGCTTCCCGCCGCCGGCGGAGTCACCTAGTGCAG | 8580 fluorescence intensity (a.u.)
CTAAATGGTAGACATCCTTTTCTTGCTATCTCTCTCAACACGGAGTCACCTAGTGCAG | 8850 fluorescence intensity (a.u.)
CATGTCGCCCTCAAGCCCCGCGCGCCATCATGTCGTCCTCCGGAGTCACCTAGTGCAG | 8200 fluorescence intensity (a.u.)

Sequence | binding signal
TACGCTACACACGCAATCTCACCAGCGCCCGCGCGCGCGCCGGAGTCACCTAGTGCAG | 8050 fluorescence intensity (a.u.)
TGTTGCAGTGGATTTTTGTACCGTTTAATATTTTCCATCTCGGAGTCACCTAGTGCAG | 11900 fluorescence intensity (a.u.)
GTTTGGTTTGGTTTGAAGAGGTCATATATGAATCACTCACCGGAGTCACCTAGTGCAG | 8150 fluorescence intensity (a.u.)
CCCAACGCTACCTGTGAAGCCATATTTGCATCATCGTTCCCGGAGTCACCTAGTGCAG | 9960 fluorescence intensity (a.u.)
CAGCACTCGTTTCCTTATTGAATCACATGGAGAATCTTTACGGAGTCACCTAGTGCAG | 9410 fluorescence intensity (a.u.)
ATCTTATCGGATTTGGTTCTGGTCCAGAGGTTGACCAGAACGGAGTCACCTAGTGCAG | 8510 fluorescence intensity (a.u.)
AGGTGGAGGTGGAGGTGGAGGAGGGCGGCGGGTGGCGATGCGGAGTCACCTAGTGCAG | 16500 fluorescence intensity (a.u.)
GCCTGGCGCGCCTCTCCTGCTCTGTTGGACCGCCGCGCCCCGGAGTCACCTAGTGCAG | 12000 fluorescence intensity (a.u.)
CCATTACCCGTACCCGTTAGCAGGCAGCTGCACCATAAGCCGGAGTCACCTAGTGCAG | 8540 fluorescence intensity (a.u.)
AATTTGCCACACATCCTAGTTTAATTTATTTCCGATTAATCGGAGTCACCTAGTGCAG | 8160 fluorescence intensity (a.u.)
GCGTAGGCCCATCAAAAACCGATCCGGCCACTCTTCTCCGCGGAGTCACCTAGTGCAG | 8120 fluorescence intensity (a.u.)
TCCCCGTCTACCACACGCCCGTGGCCGCGACCGCGAGAGCCGGAGTCACCTAGTGCAG | 8750 fluorescence intensity (a.u.)
CCCACCTTTCGGTCTTCTTATTTAGTTCCAAACTTTTTCTCGGAGTCACCTAGTGCAG | 10300 fluorescence intensity (a.u.)
CGCATATGCCTGCTCATCACTTTCTCCTTGTAGAGTTCTACGGAGTCACCTAGTGCAG | 8890 fluorescence intensity (a.u.)
TCGCCACCTCACCTCACCTCACCTCACTCGCGCCGCTATACGGAGTCACCTAGTGCAG | 8560 fluorescence intensity (a.u.)
TAAGTATTCTATTTGCTGCACCATGCATACACGTTAGTTGCGGAGTCACCTAGTGCAG | 8640 fluorescence intensity (a.u.)
TTTCAGTACTTTGCGAGCATTTATACTTATACAAGAAATACGGAGTCACCTAGTGCAG | 8580 fluorescence intensity (a.u.)
CCACCGAGCTCCGGGCCGGCCGCCACCCTTCATCGCCAGACGGAGTCACCTAGTGCAG | 10100 fluorescence intensity (a.u.)
TGAGAGCGGGCGTGTGGGTGGGAAAGCGACTATAGATGGCCGGAGTCACCTAGTGCAG | 9330 fluorescence intensity (a.u.)
CTTGACTGACCACTGCAACTTCGTCTCCTCTCCCCTTAAACGGAGTCACCTAGTGCAG | 11300 fluorescence intensity (a.u.)
CGTCGCCGCAAAACCCCACGTCCCCACCTCGACTCGCCTCCGGAGTCACCTAGTGCAG | 8460 fluorescence intensity (a.u.)
TTCGTTTTTCTTTTTTTTTTGATGGGGAGGTTGTAAAATGCGGAGTCACCTAGTGCAG | 13800 fluorescence intensity (a.u.)
TCTTTTTAGATGGCAATAAATACTCCACTCTCTTGGATTTCGGAGTCACCTAGTGCAG | 8790 fluorescence intensity (a.u.)
GCCCTCGTCGTCGTCCGACCACCCGATCCCGACGAGAACCCGGAGTCACCTAGTGCAG | 8690 fluorescence intensity (a.u.)
TCGTACGCCGACATCTCCCGCCGCTCGCCGCGCGCCCAACCGGAGTCACCTAGTGCAG | 9330 fluorescence intensity (a.u.)
CACTTCGCCGCGCTCTCCACTTTTGCAGCACATGCCGCCCCGGAGTCACCTAGTGCAG | 9990 fluorescence intensity (a.u.)
GGTTAGGGTTTGGGGTGGGGAGGGGTGGATGCGCGTGGGCCGGAGTCACCTAGTGCAG | 21600 fluorescence intensity (a.u.)

In another format: entries from further up.
GATGATGGCTATATCTTGCACGTTGCTTTCTTATGACATTCGGAGTCACCTAGTGCAG
  binding signal = 9630 fluorescence intensity (a.u.)
GTTGTTCTTCTTCAGTTCTTTTCTCTCTCTCTGTCTCCTGCGGAGTCACCTAGTGCAG
  binding signal = 8290 fluorescence intensity (a.u.)
